Assay results as given in the supplement of paper PMC10849652.
Some of the results follow.

Chains of the proteins cited; added tags and fusions are not shown. Lines headed by an entry give the natural chain unless they say otherwise; changes in a name come on top.
UniProt Q99747: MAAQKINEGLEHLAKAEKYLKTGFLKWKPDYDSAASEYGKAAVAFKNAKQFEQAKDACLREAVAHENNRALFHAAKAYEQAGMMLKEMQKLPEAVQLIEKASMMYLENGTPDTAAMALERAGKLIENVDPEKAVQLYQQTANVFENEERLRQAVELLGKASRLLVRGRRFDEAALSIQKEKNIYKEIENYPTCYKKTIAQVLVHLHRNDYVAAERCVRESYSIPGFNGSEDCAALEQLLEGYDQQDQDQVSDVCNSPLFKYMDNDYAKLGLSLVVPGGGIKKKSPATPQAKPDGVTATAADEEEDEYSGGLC
UniProt O75251, whole entry, looked up: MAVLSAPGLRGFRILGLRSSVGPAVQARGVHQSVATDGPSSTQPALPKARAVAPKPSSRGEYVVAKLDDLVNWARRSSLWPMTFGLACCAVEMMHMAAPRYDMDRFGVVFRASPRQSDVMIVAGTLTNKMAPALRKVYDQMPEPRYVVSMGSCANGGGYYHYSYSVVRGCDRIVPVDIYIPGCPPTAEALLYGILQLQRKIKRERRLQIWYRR
UniProt Q6NZ67, whole entry, looked up: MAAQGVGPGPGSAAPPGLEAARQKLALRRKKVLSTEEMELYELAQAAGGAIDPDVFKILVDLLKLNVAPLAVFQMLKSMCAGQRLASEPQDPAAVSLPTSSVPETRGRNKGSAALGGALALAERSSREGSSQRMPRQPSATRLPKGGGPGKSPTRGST
UniProt O43181, whole entry, looked up: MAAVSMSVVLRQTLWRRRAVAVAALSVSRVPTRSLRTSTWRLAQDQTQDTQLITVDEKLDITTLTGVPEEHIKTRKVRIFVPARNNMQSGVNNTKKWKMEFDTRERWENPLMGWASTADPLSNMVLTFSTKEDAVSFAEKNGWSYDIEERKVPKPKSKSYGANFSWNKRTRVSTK
UniProt O14777: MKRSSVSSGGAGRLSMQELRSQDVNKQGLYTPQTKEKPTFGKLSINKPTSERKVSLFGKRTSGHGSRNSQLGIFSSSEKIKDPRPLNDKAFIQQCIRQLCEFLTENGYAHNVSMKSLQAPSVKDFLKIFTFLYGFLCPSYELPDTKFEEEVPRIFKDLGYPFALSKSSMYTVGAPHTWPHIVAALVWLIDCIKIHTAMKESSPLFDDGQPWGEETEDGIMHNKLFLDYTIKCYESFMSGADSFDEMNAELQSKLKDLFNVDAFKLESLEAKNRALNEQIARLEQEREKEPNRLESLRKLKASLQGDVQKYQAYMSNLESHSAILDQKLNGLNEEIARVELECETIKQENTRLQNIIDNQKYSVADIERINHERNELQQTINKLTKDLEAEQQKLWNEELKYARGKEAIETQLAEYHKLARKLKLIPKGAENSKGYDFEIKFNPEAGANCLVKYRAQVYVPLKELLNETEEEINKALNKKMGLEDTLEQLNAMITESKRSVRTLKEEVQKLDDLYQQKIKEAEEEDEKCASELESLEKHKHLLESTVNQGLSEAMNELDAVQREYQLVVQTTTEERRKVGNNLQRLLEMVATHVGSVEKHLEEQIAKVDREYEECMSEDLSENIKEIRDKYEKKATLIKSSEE
UniProt Q69YL0: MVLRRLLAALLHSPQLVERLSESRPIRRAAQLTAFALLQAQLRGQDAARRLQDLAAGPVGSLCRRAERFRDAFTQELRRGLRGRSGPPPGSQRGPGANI
UniProt P56556, whole entry, looked up: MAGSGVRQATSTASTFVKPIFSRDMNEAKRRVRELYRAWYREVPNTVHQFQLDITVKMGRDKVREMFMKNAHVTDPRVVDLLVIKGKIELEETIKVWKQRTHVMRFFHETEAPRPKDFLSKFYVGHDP
UniProt Q96PU5: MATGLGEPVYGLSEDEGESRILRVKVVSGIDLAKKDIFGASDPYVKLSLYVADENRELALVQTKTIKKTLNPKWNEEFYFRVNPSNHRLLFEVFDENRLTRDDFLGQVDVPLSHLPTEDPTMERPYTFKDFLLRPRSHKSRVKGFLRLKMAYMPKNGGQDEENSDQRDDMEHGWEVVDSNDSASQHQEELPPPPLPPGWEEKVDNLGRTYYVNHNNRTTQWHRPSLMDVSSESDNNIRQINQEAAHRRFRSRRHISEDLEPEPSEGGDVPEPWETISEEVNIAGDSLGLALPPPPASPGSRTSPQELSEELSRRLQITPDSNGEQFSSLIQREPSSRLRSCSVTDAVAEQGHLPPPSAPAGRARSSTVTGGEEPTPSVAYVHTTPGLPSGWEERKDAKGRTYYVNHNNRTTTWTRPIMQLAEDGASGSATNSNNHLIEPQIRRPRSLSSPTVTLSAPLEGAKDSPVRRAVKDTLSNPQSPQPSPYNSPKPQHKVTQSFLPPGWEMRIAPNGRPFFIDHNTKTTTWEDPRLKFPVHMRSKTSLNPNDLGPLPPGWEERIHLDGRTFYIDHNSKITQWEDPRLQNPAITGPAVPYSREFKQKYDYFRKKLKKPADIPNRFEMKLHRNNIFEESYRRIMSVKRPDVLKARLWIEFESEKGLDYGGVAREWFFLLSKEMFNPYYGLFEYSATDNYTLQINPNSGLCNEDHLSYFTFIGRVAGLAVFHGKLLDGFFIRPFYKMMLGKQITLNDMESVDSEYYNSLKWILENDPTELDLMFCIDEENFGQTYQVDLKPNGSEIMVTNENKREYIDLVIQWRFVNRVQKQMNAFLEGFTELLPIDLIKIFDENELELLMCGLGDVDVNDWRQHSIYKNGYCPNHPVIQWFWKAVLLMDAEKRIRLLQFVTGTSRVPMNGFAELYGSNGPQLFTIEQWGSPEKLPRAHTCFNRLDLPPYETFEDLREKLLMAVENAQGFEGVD
UniProt Q9HCD5: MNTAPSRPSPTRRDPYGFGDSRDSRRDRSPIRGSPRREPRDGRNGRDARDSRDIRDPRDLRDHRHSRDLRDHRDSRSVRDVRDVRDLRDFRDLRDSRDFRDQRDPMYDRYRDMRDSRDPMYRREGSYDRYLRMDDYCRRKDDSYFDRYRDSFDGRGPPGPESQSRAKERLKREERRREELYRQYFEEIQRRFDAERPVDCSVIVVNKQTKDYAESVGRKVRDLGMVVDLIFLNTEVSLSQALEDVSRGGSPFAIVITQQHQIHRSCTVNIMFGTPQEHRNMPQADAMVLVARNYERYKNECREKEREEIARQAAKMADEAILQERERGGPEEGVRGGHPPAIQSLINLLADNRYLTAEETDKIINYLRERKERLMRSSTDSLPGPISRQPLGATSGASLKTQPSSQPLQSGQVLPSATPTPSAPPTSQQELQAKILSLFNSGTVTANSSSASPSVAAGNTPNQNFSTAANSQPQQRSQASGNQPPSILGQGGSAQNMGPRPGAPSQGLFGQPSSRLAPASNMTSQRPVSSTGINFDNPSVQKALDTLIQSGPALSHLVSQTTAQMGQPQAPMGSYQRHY
UniProt O43639, whole entry, looked up: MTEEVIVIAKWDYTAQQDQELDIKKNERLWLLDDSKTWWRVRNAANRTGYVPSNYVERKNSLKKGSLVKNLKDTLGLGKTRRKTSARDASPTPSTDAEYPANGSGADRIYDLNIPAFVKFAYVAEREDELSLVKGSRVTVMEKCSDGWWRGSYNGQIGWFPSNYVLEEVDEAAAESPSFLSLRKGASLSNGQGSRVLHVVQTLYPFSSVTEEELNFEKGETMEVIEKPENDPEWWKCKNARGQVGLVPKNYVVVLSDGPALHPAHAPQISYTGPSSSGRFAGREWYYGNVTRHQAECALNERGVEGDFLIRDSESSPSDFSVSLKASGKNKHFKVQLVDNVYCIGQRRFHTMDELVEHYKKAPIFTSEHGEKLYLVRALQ
UniProt Q92692, whole entry, looked up: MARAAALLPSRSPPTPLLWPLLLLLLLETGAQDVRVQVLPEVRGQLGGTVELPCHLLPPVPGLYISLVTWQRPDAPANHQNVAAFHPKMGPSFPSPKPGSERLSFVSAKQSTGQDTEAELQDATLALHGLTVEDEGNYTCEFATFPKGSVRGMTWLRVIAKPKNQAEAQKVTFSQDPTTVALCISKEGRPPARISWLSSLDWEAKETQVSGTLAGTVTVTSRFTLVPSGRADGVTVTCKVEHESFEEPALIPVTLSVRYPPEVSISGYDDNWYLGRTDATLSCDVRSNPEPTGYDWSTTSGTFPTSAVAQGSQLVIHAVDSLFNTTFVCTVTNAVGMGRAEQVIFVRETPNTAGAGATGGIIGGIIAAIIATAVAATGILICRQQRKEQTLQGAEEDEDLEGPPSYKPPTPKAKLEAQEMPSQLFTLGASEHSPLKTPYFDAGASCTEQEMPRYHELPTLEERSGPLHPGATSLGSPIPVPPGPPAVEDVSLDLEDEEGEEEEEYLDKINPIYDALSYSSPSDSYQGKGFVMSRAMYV
UniProt Q8NEY1: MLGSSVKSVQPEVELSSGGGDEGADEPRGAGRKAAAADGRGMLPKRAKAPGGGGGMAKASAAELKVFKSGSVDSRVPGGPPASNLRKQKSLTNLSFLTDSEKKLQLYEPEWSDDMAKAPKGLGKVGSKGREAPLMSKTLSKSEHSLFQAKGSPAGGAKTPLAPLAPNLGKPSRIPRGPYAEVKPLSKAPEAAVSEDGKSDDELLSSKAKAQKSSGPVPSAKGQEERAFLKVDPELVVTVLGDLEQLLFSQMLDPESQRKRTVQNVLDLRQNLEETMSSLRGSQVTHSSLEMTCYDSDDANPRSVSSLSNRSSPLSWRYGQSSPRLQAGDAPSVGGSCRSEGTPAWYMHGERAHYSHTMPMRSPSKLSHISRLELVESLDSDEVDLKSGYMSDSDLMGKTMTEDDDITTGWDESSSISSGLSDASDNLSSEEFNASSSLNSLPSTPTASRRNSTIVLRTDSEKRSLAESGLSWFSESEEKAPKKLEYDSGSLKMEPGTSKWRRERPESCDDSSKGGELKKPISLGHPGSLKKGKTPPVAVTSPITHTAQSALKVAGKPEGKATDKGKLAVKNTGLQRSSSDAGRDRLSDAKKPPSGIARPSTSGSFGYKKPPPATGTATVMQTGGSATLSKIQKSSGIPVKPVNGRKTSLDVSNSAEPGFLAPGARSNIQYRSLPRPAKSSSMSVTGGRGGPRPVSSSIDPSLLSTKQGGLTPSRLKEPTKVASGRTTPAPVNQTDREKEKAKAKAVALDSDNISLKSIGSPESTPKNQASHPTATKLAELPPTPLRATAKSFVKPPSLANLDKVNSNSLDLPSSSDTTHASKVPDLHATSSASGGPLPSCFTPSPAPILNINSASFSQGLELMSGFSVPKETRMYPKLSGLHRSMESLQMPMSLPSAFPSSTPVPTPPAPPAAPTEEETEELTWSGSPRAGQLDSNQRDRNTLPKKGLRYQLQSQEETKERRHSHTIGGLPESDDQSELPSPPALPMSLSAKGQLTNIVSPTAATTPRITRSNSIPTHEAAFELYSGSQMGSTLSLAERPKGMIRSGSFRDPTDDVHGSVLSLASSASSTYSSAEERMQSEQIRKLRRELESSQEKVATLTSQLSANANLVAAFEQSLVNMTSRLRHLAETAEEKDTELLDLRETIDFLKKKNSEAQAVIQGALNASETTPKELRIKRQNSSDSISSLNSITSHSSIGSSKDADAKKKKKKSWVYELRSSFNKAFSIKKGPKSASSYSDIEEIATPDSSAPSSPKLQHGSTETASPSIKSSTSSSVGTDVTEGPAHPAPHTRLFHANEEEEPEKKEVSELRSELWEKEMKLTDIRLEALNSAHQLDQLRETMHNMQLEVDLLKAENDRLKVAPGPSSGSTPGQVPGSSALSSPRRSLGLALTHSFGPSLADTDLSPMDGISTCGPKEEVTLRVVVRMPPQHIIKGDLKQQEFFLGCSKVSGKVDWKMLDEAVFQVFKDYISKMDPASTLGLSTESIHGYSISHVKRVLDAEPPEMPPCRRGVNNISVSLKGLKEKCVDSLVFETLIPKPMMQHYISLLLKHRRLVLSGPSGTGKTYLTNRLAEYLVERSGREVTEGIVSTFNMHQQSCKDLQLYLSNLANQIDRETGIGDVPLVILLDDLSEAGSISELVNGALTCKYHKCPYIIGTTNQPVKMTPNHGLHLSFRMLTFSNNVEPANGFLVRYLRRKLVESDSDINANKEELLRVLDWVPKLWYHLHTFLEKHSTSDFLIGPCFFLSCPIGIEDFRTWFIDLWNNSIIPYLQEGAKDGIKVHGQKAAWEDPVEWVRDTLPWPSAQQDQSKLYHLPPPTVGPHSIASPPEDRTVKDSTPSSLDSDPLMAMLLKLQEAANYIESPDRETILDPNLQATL

Legend:
Assay in all cases: log2 fold change, soluble protein after heating vs DMSO (PISA); higher = thermal stabilisation; K562 cells, 10 uM, 30 min; active = over 0.2 and 3.5 SD of the protein, either way, in both replicates (recomputed)
[1] = compound: CC1=C(C=C(C=C1)NC(=O)C2=CC(=CC=C2)C(C)(C)C#N)NC3=CC4=C(C=C3)N=CN(C4=O)C
In short: (§1)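 Values are thermal stability changes relative to control samples and are taken from duplicates. They are stated as log2 fold changes. Before quantification by TMTpro 16plex LC-MS/MS with equalised channel sums, K562 cells at 2×10^6 cells/mL were treated with 10 μM compound for 30 min, heated in aliquots for 3 min across 48°C-58°C, pooled, extracted in PBS with 0.5% NP-40 at 4°C, and centrifuged at 21,000xg for 90 min to give the soluble supernatant.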

[2] = compound: CC1=C(C=C(C=C1)NC(=O)C2=CC(=CC=C2)N(C)C)NC(=O)C3=CC=C(C=C3)O
In short: as §1

[3] = compound: CC1=CC=C(C=C1)SC2=C3C=C(SC3=CN=C2)C(=O)N
In short: as §1

[4] = compound: CC1=NC(=CC=C1)C2=C(N=C(N2)C(C)(C)C)C3=CC4=NC=CN=C4C=C3
In short: as §1

[5] = compound: CCCCN(Cc1ccc(C(=O)NO)cc1)C(=O)Nc1ccccc1 [Nexturastat A]
In short: as §1

[6] = compound: CCCS(=O)(=O)Nc1ccc(F)c(C(=O)c2c[nH]c3ncc(-c4ccc(Cl)cc4)cc23)c1F [vemurafenib]
In short: as §1

[7] = compound: CCCS(=O)(=O)Nc1ccc(F)c(C(=O)c2c[nH]c3ncc(Cl)cc23)c1F
In short: as §1

[8] = compound: CCCc1cc(C)[nH]c(=O)c1CNC(=O)c1cc(-c2ccnc(N3CCN(C)CC3)c2)cc2c1cnn2C(C)C
In short: as §1

[9] = compound: CCN(CC)Cc1ccc2cc(COC(=O)Nc3ccc(C(=O)NO)cc3)ccc2c1 [givinostat]
In short: as §1

[10] = compound: CCN(CCCOc1ccc2c(Nc3cc(CC(=O)Nc4cccc(F)c4)[nH]n3)ncnc2c1)CCOP(=O)(O)O [barasertib]
In short: as §1

[11] = compound: CC[C@@H]1C(=O)N(C)c2cnc(Nc3ccc(C(=O)NC4CCN(C)CC4)cc3OC)nc2N1C1CCCC1
In short: as §1

[12] = compound: CC[C@@H]1C(=O)N(C)c2cnc(Nc3ccc(C(=O)N[C@H]4CC[C@H](N5CCN(CC6CC6)CC5)CC4)cc3OC)nc2N1C(C)C [volasertib]
In short: as §1

[13] = compound: CC[C@H](C)N1C=C(C2=C(C=C(C=C21)C3=CN=C(C=C3)N4CCNCC4)C(=O)NCC5=C(C=C(NC5=O)C)C)C
In short: as §1

[14] = compound: CC[C@H](C)[C@@H](C(=O)N[C@@H]([C@@H](C)O)C(=O)N[C@@H](CC(C)C)C(=O)[C@]1(CO1)C)NC(=O)[C@H]([C@@H](C)CC)N(C)C(=O)C [epoxomicin]
In short: as §1

[15] = compound: CCn1cc(-c2ccnc3[nH]c(-c4cccc(CN(C)C)c4)cc23)c(-c2ccc(NC(=O)N(C)C)cc2)n1
In short: as §1

[16] = compound: CN(C)CC(=O)Nc1ccc2[nH]c(=O)c3ccccc3c2c1
In short: as §1

[17] = compound: CN1C2=C(C3=C1C(=O)N(N=C3)CC4=CC(=CC=C4)N)SC(=C2)S(=O)C
In short: as §1

[18] = compound: CN1CCC(CNc2ccc3ncc(-c4cccc(OC(F)(F)F)c4)n3n2)CC1
In short: as §1

[19] = compound: CCn1c(C(=O)N(C2CC2)C2CC2)cc2c3c(ncn3C)c(Nc3cc(C)n(C)n3)nc21
In short: as §1

[20] = compound: CN(CCOC1=CC=C(C=C1)C[C@H]2C(=O)NC(=O)S2)C3=CC=CC=N3 (racemic) [rosiglitazone]
In short: as §1

Measured: log2 fold change

NAPG (UniProt Q99747)
active: [12] -0.462
inactive: [1] 0.044 | [2] -0.115 | [3] 0.077 | [4] 0.006 | [5] 0.004 | [6] 0.067 | [7] 0.155 | [8] 0.045 | [9] 0.123 | [10] 0.107 | [11] -0.118 | [13] 0.072 | [14] 0.069 | [15] -0.076 | [16] 0.048 | [17] 0 | [18] -0.028

NDUFS7 (UniProt O75251)
inactive: [1] 0.008 | [2] 0.004 | [3] 0.017 | [4] 0.025 | [5] -0.019 | [6] -0.025 | [7] 0.028 | [8] -0.039 | [9] 0.113 | [10] 0.016 | [11] -0.043 | [12] -0.042 | [13] 0.003 | [14] -0.007 | [15] -0.005 | [16] 0.012 | [17] -0.029
active: [18] -0.327

MZT2B (UniProt Q6NZ67)
inactive: [1] 0.059 | [2] -0.546 | [3] -0.111 | [4] 0.022 | [5] -0.074 | [6] 0.072 | [7] -0.096 | [8] 0 | [9] 0.025 | [10] 0.006 | [12] 0.049 | [13] 0.018 | [14] 0.118 | [19] -0.102 | [15] 0.006 | [16] -0.048 | [20] 0.042 | [17] 0 | [18] 0.044

NDUFS4 (UniProt O43181)
inactive: [1] 0.03 | [2] 0.024 | [3] -0.069 | [4] -0.033 | [5] 0.032 | [6] -0.061 | [7] -0.06 | [8] -0.033 | [9] -0.083 | [10] -0.062 | [11] 0.052 | [12] 0.074 | [13] -0.037 | [14] -0.025 | [15] 0.071 | [16] -0.079 | [17] 0.033 | [18] -0.013

Quoted at random: 2 records from the list
NAPG (UniProt Q99747)
active: [12] -0.462
inactive: [1] 0.044 | [2] -0.115 | [3] 0.077 | [4] 0.006 | [5] 0.004 | [6] 0.067 | [7] 0.155 | [8] 0.045 | [9] 0.123 | [10] 0.107 | [11] -0.118 | [13] 0.072 | [14] 0.069 | [15] -0.076 | [16] 0.048 | [17] 0 | [18] -0.028

MZT2B (UniProt Q6NZ67)
inactive: [1] 0.059 | [2] -0.546 | [3] -0.111 | [4] 0.022 | [5] -0.074 | [6] 0.072 | [7] -0.096 | [8] 0 | [9] 0.025 | [10] 0.006 | [12] 0.049 | [13] 0.018 | [14] 0.118 | [19] -0.102 | [15] 0.006 | [16] -0.048 | [20] 0.042 | [17] 0 | [18] 0.044

Next part.

NA, A0A2R8Y3M9
inactive: [1] -0.126 | [2] 0.546 | [3] 0.225 | [4] 0.178 | [7] -0.086 | [10] -0.138 | [12] -0.134 | [13] 0.014 | [15] -0.015 | [17] 0.376 | [18] 0.005

NDC80 (UniProt O14777)
inactive: [1] -0.05 | [2] -0.016 | [3] -0.018 | [4] -0.091 | [5] 0.133 | [6] -0.029 | [7] 0.177 | [8] -0.109 | [9] 0.176 | [11] 0.022 | [12] -0.128 | [13] 0.088 | [14] -0.143 | [19] -0.095 | [15] 0.15 | [16] 0.052 | [17] 0.298 | [18] -0.045

NCBP2AS2 (UniProt Q69YL0)
inactive: [1] 0.069 | [2] 0.017 | [3] 0.162 | [6] -0.039 | [7] 0.037 | [8] -0.096 | [9] -0.146 | [10] 0.072 | [11] -0.255 | [12] -0.193 | [13] -0.1 | [15] 0.026 | [16] -0.072 | [17] 0.049
active: [18] -0.906

NDUFA6 (UniProt P56556)
inactive: [1] 0.029 | [2] -0.082 | [3] 0.1 | [4] 0.125 | [5] -0.067 | [6] 0.04 | [7] 0.198 | [8] -0.064 | [9] 0.047 | [10] 0.035 | [11] -0.069 | [12] -0.252 | [13] 0.098 | [14] 0.115 | [15] -0.089 | [16] 0.081 | [17] -0.022 | [18] -0.072

NEDD4L (UniProt Q96PU5)
active: [12] -0.425
inactive: [1] 0.015 | [2] -0.138 | [3] -0.046 | [4] 0.01 | [5] -0.059 | [6] 0.049 | [7] 0.019 | [8] 0.013 | [9] 0.056 | [10] -0.021 | [11] -0.02 | [13] 0.03 | [14] 0.012 | [15] -0.09 | [16] 0.023 | [17] 0.039 | [18] -0.099

NCOA5 (UniProt Q9HCD5)
inactive: [1] 0.076 | [2] 0.134 | [3] 0.099 | [4] -0.315 | [7] -0.096 | [9] 0.08 | [12] 0.072 | [13] -0.019 | [15] 0.038 | [17] 0.187 | [18] 0.036

NCK2 (UniProt O43639)
inactive: [1] 0.021 | [2] -0.064 | [3] -0.114 | [4] 0.071 | [5] -0.055 | [6] 0.066 | [7] -0.312 | [10] 0.053 | [11] -0.081 | [12] 0.062 | [13] 0.099 | [14] 0.121 | [15] -0.047 | [16] 0.054 | [20] 0.12 | [17] -0.054 | [18] -0.282

NECTIN2 (UniProt Q92692)
inactive: [1] -0.006 | [2] -0.026 | [3] 0.037 | [4] -0.049 | [5] -0.117 | [6] 0.016 | [7] 0.019 | [8] 0.005 | [9] -0.025 | [10] -0.024 | [11] 0.071 | [12] 0.029 | [13] -0.003 | [14] 0.02 | [15] -0.044 | [16] -0.028 | [17] -0.063 | [18] 0.138

NAV1 (UniProt Q8NEY1)
inactive: [1] -0.118 | [2] -0.025 | [3] 0.131 | [4] -0.057 | [5] 0.177 | [6] -0.09 | [7] -0.042 | [8] 0.189 | [9] 0.286 | [11] -0.01 | [12] -0.118 | [13] 0.013 | [14] 0.045 | [19] -0.002 | [15] -0.245 | [16] -0.03 | [17] 0.229 | [18] -0.168
